Assay results from publication PMC8417825, “Light-Induced Dynamic Change of Phytochrome B and Cryptochrome 1 Stabilizes SINATs in Arabidopsis” (Frontiers in Plant Science, 2021).
Positions count from the first letter of the chain named. In names and notes the source's numbering stands. Results are given in words; binding and its absence hold for the method and conditions named. Binding seen in cells or lysates may run through a third protein. Some entries that bind do so weakly or less than the wild type. For some of these results: Where a sequence is shown, tags or fusion partners need not be part of it. One block for each molecule: values may come before it.

Columns and labels:
[1] = target: T1, SINAT2-FLAG (Arabidopsis thaliana) (UniProt Q9M2P4); experiment: co-IP; anti-FLAG M2 agarose precipitated SINAT2-FLAG or SINAT5-FLAG from extracts of 2-week-old SINAT-FLAG CRY1-Myc plants; CRY1-Myc detected with anti-Myc; also after 6 h of dark or blue light (interaction stronger in the dark)
T1 sequence: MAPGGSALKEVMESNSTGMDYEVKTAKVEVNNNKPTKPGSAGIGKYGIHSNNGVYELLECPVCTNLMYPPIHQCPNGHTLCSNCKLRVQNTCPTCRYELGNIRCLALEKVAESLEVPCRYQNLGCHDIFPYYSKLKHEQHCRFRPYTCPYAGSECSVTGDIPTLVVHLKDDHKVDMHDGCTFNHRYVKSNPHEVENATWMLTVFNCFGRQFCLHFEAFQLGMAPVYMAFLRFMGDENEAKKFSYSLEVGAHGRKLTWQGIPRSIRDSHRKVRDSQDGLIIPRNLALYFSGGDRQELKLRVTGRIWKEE

[2] = target: phyB-GFP (Arabidopsis thaliana) (UniProt P14713); experiment: co-IP; anti-GFP gel precipitated phyB-GFP from extracts of 2-week-old SINAT2-FLAG phyB-GFP or SINAT5-FLAG phyB-GFP plants; SINAT-FLAG detected with anti-FLAG
[3] = target: T2, CRY1-C-GST (Arabidopsis thaliana) (UniProt Q43125); experiment: pull-down; semi-in vivo pull-down: GST fusion pre-incubated with GST beads at 4°C for 1 h, incubated with total protein extract of 2-week-old SINAT2-FLAG or SINAT5-FLAG plants (100 mM Tris-HCl pH 7.5, 300 mM NaCl, 2 mM EDTA, 1% Triton X-100, 10% glycerol, 50 uM MG132); washed with 1x PBS, 0.1% Triton X-100; anti-FLAG blot; only the target purified
T2 sequence: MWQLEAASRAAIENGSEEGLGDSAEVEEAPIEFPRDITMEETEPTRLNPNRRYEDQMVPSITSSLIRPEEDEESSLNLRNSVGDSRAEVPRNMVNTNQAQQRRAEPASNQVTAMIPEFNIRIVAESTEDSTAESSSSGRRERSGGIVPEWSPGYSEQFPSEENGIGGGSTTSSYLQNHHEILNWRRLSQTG

phyB-N-GST = target: T3, phyB-N-GST (Arabidopsis thaliana, UniProt P14713 1-645); experiment: as above
T3 construct: phytochrome B (phyB), Arabidopsis thaliana, N-terminus, amino acids 1-645; also called N-terminus of phytochrome B; source: E. coli, purified (glutathione resin)
T3 sequence (looked up): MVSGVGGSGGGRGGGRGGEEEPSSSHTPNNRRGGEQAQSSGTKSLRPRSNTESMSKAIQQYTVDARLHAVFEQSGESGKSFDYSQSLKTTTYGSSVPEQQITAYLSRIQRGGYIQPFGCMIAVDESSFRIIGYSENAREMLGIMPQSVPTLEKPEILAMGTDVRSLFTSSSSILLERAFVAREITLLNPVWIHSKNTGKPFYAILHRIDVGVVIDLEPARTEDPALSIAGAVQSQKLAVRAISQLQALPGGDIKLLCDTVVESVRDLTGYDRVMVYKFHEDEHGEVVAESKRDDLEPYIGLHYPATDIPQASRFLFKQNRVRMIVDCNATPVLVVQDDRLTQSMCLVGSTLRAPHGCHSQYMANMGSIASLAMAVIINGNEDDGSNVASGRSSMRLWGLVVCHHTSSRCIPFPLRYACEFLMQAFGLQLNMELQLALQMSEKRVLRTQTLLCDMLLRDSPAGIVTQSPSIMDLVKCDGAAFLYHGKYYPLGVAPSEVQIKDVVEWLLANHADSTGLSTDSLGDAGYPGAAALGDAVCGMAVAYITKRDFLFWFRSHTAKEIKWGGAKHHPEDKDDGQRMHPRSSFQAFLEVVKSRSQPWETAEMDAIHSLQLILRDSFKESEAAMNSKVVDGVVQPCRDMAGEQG

CRY1-N-GST = target: T4, CRY1-N-GST (Arabidopsis thaliana, UniProt Q43125 1-490); experiment: as above
T4 construct: cryptochrome 1 (CRY1), Arabidopsis thaliana, N-terminus, amino acids 1-490; Cloned into pGEX-4T-1; also called N-terminus of cryptochrome 1; source: E. coli BL21 (DE3) pLysS, purified (glutathione resin)

phyB-C-GST = target: T5, phyB-C-GST (Arabidopsis thaliana, UniProt P14713 646-1172); experiment: as above
T5 construct: phytochrome B (phyB), Arabidopsis thaliana, C-terminus, amino acids 646-1,172; Cloned into pGEX-4T-1; also called C-terminus of phytochrome B; source: E. coli BL21 (DE3) pLysS, purified (glutathione resin)
T5 sequence (looked up): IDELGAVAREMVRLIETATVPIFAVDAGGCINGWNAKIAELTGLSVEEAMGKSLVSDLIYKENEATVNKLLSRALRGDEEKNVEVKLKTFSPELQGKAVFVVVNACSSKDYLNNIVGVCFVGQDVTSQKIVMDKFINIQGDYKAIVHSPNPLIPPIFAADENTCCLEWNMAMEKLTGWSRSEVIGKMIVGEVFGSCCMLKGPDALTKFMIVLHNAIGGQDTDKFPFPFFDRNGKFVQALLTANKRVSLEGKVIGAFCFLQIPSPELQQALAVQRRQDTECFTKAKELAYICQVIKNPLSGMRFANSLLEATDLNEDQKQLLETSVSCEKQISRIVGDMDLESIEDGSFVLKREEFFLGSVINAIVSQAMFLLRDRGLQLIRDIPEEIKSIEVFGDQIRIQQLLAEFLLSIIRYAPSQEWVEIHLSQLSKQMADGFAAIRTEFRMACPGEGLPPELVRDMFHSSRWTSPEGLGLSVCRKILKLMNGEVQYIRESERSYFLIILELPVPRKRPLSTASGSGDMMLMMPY

[4] = target: phyB fused to C-terminal YFP (pXY104-cYFP) (Arabidopsis thaliana) (UniProt P14713); experiment: split reporter; BiFC: SINAT constructs fused to nYFP, phyB or CRY1 fused to cYFP, in N. benthamiana pavement cells after Agrobacterium infiltration; YFP by confocal microscopy
[5] = target: CRY1 fused to C-terminal YFP (pXY104-cYFP) (Arabidopsis thaliana) (UniProt Q43125); experiment: as above

binding [1]: binds
Molecule: CRY1-Myc (from UniProt Q43125 1-681)

binding [2]: binds
binding [3]: binds
binding (phyB-N-GST): binds
binding (CRY1-N-GST): binds
binding (phyB-C-GST): binds
B1: SINAT2-His (natural protein, Arabidopsis thaliana, UniProt Q9M2P4 1-308, looked up)
chain: T1 sequence
notes: SINAT2 (SINA of Arabidopsis thaliana 2), At3g58040; Printed both as SINAT2-His (pull-down) and His-SINAT2 (ubiquitination assay); also called His-SINAT2

binding [4]: binds
binding [5]: binds
B2: SINAT2^C63S (BiFC construct) (protein, UniProt Q9M2P4 1-308)
chain: T1 sequence with C63S

binding [4]: binds
binding [5]: binds
B3: SINAT4^C67S (BiFC construct) (protein, UniProt Q9STN8 1-327)
chain: METDSMECVSSTGNEIHQNGNGHQSYQFSSTKTHGGAAAAAVVTNIVGPTATAPATSVYELLECPVSTYSMYPPIHQCHNGHTLCSTCKVRVHNRCPTCRQELGDIRCLALEKVAESLELPCKFYNLGCPEIFPYYSKLKHESLCNFRPYSCPYAGSECGIVGDIPFLVAHLRDDHKVDMHAGSTFNHRYVKSNPREVENATWMLTVFHCFGQYFCLHFEAFQLGMGPVYMAFLRFMGDEEDARSYSYSLEVGGSGRKLTWEGTPRSIRDSHRKVRDSNDGLIIQRNMALFFSGGDRKELKLRVTGKIWKEQHSPDSGLSIPNLSSS
